Experimental data taken from PMC12504744.
Results are given in words; binding and its absence hold for the method and conditions named. Binding seen in cells or lysates may run through a third protein. Some binding calls cover weakened binding; strength is not graded here.

Amino acid sequences for entries named in this document (tags omitted). A change or cut given only in a name is not applied to a line headed by its entry. Residues count along the entry.
UniProt O94953: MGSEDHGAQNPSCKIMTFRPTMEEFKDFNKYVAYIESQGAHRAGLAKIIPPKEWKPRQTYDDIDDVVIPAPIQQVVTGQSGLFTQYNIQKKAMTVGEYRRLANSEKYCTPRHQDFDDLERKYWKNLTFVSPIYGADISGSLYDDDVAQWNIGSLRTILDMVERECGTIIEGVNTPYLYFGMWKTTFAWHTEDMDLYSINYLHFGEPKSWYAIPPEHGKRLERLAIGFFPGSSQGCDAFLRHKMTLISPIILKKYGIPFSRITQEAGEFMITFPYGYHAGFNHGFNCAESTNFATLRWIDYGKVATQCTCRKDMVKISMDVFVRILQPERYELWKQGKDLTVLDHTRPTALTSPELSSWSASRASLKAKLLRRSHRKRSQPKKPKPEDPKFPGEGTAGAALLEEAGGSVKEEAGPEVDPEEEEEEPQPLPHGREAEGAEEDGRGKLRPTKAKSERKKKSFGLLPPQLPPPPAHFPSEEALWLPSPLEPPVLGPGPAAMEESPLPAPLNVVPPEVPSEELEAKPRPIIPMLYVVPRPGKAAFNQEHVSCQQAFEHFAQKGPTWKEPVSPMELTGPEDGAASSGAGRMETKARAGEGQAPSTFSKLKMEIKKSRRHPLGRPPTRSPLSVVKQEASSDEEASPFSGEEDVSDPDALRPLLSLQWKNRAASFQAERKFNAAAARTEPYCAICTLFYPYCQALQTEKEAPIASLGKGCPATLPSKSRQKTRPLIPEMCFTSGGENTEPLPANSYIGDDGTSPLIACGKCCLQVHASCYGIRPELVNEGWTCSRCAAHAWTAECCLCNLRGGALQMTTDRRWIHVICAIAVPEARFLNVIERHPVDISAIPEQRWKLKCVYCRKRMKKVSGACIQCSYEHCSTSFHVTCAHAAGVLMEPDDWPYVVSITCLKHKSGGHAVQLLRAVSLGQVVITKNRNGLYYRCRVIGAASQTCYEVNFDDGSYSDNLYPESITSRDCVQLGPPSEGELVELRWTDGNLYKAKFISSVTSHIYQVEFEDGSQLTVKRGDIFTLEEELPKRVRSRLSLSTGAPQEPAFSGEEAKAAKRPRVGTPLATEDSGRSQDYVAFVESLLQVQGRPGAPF
UniProt P19785: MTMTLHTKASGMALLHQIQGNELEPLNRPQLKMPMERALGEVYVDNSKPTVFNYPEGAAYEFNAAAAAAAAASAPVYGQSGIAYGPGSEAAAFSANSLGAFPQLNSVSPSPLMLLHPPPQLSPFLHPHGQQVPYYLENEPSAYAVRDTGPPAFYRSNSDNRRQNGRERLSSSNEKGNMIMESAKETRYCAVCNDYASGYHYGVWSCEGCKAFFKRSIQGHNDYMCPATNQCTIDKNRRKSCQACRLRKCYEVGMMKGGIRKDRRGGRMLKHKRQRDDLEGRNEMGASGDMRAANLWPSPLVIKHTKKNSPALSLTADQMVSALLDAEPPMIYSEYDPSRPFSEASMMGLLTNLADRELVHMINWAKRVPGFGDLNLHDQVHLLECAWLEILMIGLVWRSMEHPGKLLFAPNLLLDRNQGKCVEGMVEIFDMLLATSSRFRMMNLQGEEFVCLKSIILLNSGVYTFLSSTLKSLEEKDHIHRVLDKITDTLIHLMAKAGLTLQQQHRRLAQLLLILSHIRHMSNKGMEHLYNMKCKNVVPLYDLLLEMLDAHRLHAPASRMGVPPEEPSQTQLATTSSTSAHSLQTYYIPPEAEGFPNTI
UniProt P03372: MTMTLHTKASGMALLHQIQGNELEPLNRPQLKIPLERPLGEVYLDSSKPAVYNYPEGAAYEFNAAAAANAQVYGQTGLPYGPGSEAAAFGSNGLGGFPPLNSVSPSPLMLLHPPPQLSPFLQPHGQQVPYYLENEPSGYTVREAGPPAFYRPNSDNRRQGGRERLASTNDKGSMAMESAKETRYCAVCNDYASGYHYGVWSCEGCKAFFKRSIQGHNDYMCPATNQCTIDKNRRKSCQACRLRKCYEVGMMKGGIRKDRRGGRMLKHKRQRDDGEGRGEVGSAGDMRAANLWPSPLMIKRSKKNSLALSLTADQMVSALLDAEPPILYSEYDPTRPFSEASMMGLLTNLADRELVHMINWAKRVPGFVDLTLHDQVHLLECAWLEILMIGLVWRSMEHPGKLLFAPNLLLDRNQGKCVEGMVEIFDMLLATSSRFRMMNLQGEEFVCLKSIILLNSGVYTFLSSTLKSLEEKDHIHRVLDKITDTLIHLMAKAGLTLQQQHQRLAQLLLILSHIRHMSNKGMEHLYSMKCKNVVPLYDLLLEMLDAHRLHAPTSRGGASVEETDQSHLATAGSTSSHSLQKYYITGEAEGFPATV
GST-ERαAF1 (GST-ERα 29-180aa): residues 29-180 of P03372
GST-ERαAF2 (GST-ERα 282-595aa): residues 282-595 of P03372
UniProt Q61188: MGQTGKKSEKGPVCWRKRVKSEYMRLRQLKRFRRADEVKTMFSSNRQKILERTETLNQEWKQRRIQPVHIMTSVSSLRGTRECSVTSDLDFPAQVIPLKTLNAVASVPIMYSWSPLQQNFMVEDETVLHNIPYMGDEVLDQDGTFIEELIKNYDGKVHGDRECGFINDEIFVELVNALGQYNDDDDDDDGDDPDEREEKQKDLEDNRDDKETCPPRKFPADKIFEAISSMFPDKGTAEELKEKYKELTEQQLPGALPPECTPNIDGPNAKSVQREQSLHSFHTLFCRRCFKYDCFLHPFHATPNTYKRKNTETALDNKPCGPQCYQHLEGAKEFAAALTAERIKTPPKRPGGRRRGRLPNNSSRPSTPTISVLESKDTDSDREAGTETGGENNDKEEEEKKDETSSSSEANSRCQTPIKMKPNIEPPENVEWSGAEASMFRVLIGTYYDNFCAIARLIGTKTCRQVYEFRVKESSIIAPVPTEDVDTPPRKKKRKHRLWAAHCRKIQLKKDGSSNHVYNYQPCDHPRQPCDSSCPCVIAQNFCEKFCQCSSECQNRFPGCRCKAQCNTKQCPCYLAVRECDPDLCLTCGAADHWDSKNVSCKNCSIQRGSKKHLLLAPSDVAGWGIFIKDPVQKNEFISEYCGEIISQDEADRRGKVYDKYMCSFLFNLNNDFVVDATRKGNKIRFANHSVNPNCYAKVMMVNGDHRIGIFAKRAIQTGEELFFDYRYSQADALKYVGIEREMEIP
UniProt Q15022: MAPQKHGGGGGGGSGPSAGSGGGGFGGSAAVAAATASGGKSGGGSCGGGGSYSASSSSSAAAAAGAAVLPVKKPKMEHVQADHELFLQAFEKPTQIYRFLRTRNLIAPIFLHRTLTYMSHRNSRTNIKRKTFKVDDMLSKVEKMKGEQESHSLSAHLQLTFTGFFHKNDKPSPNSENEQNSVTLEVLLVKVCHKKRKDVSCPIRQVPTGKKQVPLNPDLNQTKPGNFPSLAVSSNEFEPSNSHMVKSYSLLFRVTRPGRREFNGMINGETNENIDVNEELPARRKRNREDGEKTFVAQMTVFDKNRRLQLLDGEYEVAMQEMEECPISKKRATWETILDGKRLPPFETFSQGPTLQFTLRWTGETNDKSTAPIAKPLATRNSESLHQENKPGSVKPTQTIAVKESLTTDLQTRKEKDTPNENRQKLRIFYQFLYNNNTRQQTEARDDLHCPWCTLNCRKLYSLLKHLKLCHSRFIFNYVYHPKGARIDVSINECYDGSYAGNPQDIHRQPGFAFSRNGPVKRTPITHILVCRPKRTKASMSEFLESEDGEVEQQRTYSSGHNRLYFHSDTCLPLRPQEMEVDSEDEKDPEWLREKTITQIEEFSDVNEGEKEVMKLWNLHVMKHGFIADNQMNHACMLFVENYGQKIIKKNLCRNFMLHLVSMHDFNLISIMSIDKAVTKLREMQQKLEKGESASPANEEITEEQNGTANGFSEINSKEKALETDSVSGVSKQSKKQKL
UniProt Q80U70: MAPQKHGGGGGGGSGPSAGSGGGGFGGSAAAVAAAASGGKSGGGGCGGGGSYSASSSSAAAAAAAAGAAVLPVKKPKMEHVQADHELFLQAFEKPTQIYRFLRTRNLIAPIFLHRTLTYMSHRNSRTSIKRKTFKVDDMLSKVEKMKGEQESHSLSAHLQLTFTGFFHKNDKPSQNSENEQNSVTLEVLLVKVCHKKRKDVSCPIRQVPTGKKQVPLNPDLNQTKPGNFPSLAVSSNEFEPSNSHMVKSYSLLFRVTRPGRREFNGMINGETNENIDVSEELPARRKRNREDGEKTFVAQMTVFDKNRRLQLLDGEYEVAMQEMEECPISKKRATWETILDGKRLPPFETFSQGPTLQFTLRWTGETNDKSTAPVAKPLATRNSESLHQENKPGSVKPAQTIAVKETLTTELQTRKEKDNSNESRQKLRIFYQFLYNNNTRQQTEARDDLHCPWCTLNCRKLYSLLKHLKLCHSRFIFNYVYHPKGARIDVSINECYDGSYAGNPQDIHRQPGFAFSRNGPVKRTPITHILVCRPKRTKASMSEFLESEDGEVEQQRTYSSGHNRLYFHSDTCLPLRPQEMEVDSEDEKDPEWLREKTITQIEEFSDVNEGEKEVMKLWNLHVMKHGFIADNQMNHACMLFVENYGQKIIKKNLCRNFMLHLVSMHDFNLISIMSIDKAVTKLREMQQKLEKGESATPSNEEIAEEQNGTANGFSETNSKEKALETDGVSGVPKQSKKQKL

Tests used:
[1] = target: HA-KDM4B expressed in HASMCs (UniProt O94953); assay: co-IP; HASMCs co-transfected with PcDNA3.1/HA-KDM4B and ERα plasmids, treated with or without estrogen; whole-cell extracts immunoprecipitated with anti-HA or IgG two days after transfection
[2] = target: HA-KDM4B expressed in HEK-293 cells (UniProt O94953); assay: co-IP; HEK-293 cells co-transfected with PcDNA3.1/HA-KDM4B and ERα plasmids, treated with or without estrogen (E2, 100 nM); whole-cell extracts immunoprecipitated with anti-HA or IgG two days after transfection
[3] = target: ERα, endogenous in MOVAS cells (mouse (endogenous in MOVAS)) (UniProt P19785); assay: co-IP; endogenous proteins in MOVAS cell whole-cell lysate, Protein G beads, immunoblotting
[4] = target: GST-ERαAF1 (GST-ERα 29-180aa) (UniProt P03372); assay: pull-down; GST-ERα fusion proteins on GST-sepharose beads incubated overnight at 4 °C with HA-KDM4B (HEK-293T lysate by the legend, in vitro translated by the methods); washed 4 times with binding buffer (20 mM Tris pH 7.5, 50 mM NaCl, 10% glycerol, 1% Nonidet P-40); western blotting; only the target purified
[5] = target: GST-ERαAF2 (GST-ERα 282-595aa) (UniProt P03372); assay: as above
[6] = target: ERα, endogenous in HASMCs (human (endogenous in HASMCs)) (UniProt P03372); assay: co-IP; endogenous proteins in HASMC whole-cell lysate, Protein G beads, reciprocal co-IP and immunoblotting; also in HASMCs harboring control siRNA or siKDM4B with anti-ERα and IgG
[7] = target: KDM4B, endogenous in HASMCs (human (endogenous in HASMCs)) (UniProt O94953); assay: as above

How did the binding [1] turn out when “ERα (estrogen receptor α) expressed from plasmid in HASMCs (from UniProt P03372 1-595)” was run?
The binding was “binds”.

With “ERα (estrogen receptor α) expressed from plasmid in HEK-293 cells (from UniProt P03372 1-595)” as the substance, how does the binding [2] read?
The binding was “binds”.

For “Enhancer of Zeste homolog 2 (EZH2), endogenous in MOVAS cells (from UniProt Q61188 1-746)”, which binding [3] is on record?
The binding was “binds”.

“HA-KDM4B (histone lysine demethylase 4B), as used in the GST pull-down (from UniProt O94953 1-1096)” was tested. Which binding [4] did it give?
Its binding is “binds”.

What about the binding [5] of the same substance?
The binding was “binds”.

Which binding [6] does the source give for “KDM4B, endogenous in HASMCs (from UniProt O94953 1-1096)” here?
The binding was “binds”.

Which results are given for “Suppressor of Zeste 12 (SUZ12), endogenous in HASMCs (from UniProt Q15022 1-739)”?
binding [6]: binds; binding [7]: binds

With “Suppressor of Zeste 12 (SUZ12), endogenous in MOVAS cells (from UniProt Q80U70 1-741)” as the substance, how does the binding [3] read?
Its binding is “binds”.
